Measurements from PubChem BioAssay AID493014 (National Center for Advancing Translational Sciences (NCATS), 2011).
Hit rate of the full screen: of about 340,000 compounds, about 170 (0.05%) were called active. The shares of active, inactive and inconclusive entries below differ from those in the screen. Calls come from the whole dose curve; as a rule, active = well fitted inhibition curve with a large enough effect in the signal ratio, with a control signal flat (not every such curve was filed as active); inconclusive = small, poorly fitted or top-dose-only effect, or effect the other way, or a change in a side signal; inactive = flat fitted curve, though single readings scatter; the % refers to the signal ratio. Potencies of inconclusive entries are doubtful fits and often do not repeat.

assay: qHTS Assay to Find Inhibitors of Chronic Active B-Cell Receptor Signaling; details: ABC-DLBCL IkBa-CBG/CBR reporter, luminescence ratio (green luciferase fused to IkBa over red control in TMD8 lymphoma cells), 4 h; activity change, negative = inhibition: at 46.1 µM (top of the series) unless noted;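 for activity change, negative = inhibition: plate controls were basal doxycycline-induced cells for no effect and cells given 10 µM MG132 for full effect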
Summary of the method: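 TMD8 ABC-DLBCL cells carrying doxycycline-inducible green luciferase fused to IkappaBalpha plus unfused red luciferase were exposed to compounds (up to 46 uM) for 4 hrs at 37C. Activity came from the overlap-corrected green/red luminescence ratio.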
Potency is the fitted concentration of half-maximal effect.

| Compound | activity change, negative = inhibition | Potency |
| --- | --- | --- |
| COc1ccc(OC)c2[nH]c(=O)c(CCNC(=S)NC(C)(C)C)cc12 | inconclusive: -10.9% |  |
| O=C(N/N=C/c1ccoc1)c1ccccc1Br |  | inconclusive: 10 µM [falling, partial curve] |
| Cc1noc(C)c1CSCC(=O)Nc1nc2c(F)cc(F)cc2s1 | inconclusive: 11% |  |
| CN(Cc1ccc2nonc2c1)Cc1nc(CC2CC2)no1 | inconclusive: 3.61% |  |
| CN(CC(=O)Nc1ccc(Cl)c(C(F)(F)F)c1)C(=O)Cn1cc([N+](=O)[O-])ccc1=O | inactive: -2.42% |  |
| COc1cc(/C=C2\SC(=S)N(CCCCC(=O)O)C2=O)ccc1OS(=O)(=O)c1ccc(C)cc1 |  | inconclusive: 6.51 µM [rising, partial curve, poor fit] |
| O=C(COc1ccc(Cl)cc1Cl)N1CCNC1=O | inconclusive: 3.56% |  |
| CCN1CCN(c2ccc(S(=O)(=O)N3CCCCC3)cc2NC(=O)C(C)Oc2ccc(F)cc2)CC1 (stereo unspecified) | inactive: -6.82% |  |
| O=C(O)c1ccc(Nc2c3ccccc3nc3ccccc23)cc1 | inactive: 1.14% |  |
| Clc1ccc(-c2nnc(-c3ccccc3)c(N3CCSCC3)n2)cc1 | inconclusive: 401% |  |
| O=C(OCCCCN1C(=O)c2ccccc2C1=O)c1ccc(S(=O)(=O)N2CCCC2)cc1 | inconclusive: -0.316% |  |
| C=CCC(=O)OCC(=O)Nc1ccc(Oc2ccccc2)cc1 | inconclusive: -24.1% |  |
| CC(Cc1ccccc1)NC(=O)CC(c1ccccc1)c1ccccc1O (stereo unspecified) | inactive: 2.13% |  |
| COCCn1c(C)cc(C2=NNC(=NC3CC3)SC2)c1C | inconclusive: 11.1% |  |
| Cc1cccc(-c2cc3nc(C)c(C)c(NCCCn4ccnc4)n3n2)c1 | inactive: -2.01% |  |
| COc1cc(OC)c(C2=NOC(C(=O)Nc3c(C)n(C)n(-c4ccccc4)c3=O)C2)cc1Cl (stereo unspecified) | inconclusive: -26.6% |  |
| COC(=O)C1=C(C)N(Cc2ccccc2)C(=NCc2ccccc2)N[C@H]1c1ccccc1 | inconclusive: 28.4% |  |
| CC1CCC2(CC1)NC(=O)c1ccccc1O2 (stereo unspecified) | inconclusive: 6.63% |  |
| CC(C)(C)c1ccc(NC(=O)c2ccccc2)c([N+](=O)[O-])c1 |  | inconclusive: 11.2 µM [rising, partial curve] |
| CCOC(=O)C1(Cc2ccccc2)CCCN(C(=O)c2ccc(-n3ccnc3)cc2)C1 (stereo unspecified) | inactive: 8.91% |  |
| CCCc1nc(SCC(=O)NC2CCCC2)c2ccccc2n1 | inconclusive: -20% |  |

11 compounds out of the list, ordered by length of the SMILES, falling.

| Compound | activity change, negative = inhibition | Potency |
| --- | --- | --- |
| CN(CC(=O)Nc1ccc(Cl)c(C(F)(F)F)c1)C(=O)Cn1cc([N+](=O)[O-])ccc1=O | inactive: -2.42% |  |
| COc1cc(/C=C2\SC(=S)N(CCCCC(=O)O)C2=O)ccc1OS(=O)(=O)c1ccc(C)cc1 |  | inconclusive: 6.51 µM [rising, partial curve, poor fit] |
| CCN1CCN(c2ccc(S(=O)(=O)N3CCCCC3)cc2NC(=O)C(C)Oc2ccc(F)cc2)CC1 (stereo unspecified) | inactive: -6.82% |  |
| COc1cc(OC)c(C2=NOC(C(=O)Nc3c(C)n(C)n(-c4ccccc4)c3=O)C2)cc1Cl (stereo unspecified) | inconclusive: -26.6% |  |
| COC(=O)C1=C(C)N(Cc2ccccc2)C(=NCc2ccccc2)N[C@H]1c1ccccc1 | inconclusive: 28.4% |  |
| CCOC(=O)C1(Cc2ccccc2)CCCN(C(=O)c2ccc(-n3ccnc3)cc2)C1 (stereo unspecified) | inactive: 8.91% |  |
| COc1ccc(OC)c2[nH]c(=O)c(CCNC(=S)NC(C)(C)C)cc12 | inconclusive: -10.9% |  |
| CC(Cc1ccccc1)NC(=O)CC(c1ccccc1)c1ccccc1O (stereo unspecified) | inactive: 2.13% |  |
| Cc1noc(C)c1CSCC(=O)Nc1nc2c(F)cc(F)cc2s1 | inconclusive: 11% |  |
| C=CCC(=O)OCC(=O)Nc1ccc(Oc2ccccc2)cc1 | inconclusive: -24.1% |  |
| CN(Cc1ccc2nonc2c1)Cc1nc(CC2CC2)no1 | inconclusive: 3.61% |  |

The results go on.

| Compound | activity change, negative = inhibition | Potency |
| --- | --- | --- |
| CCCN1CCN(C(c2cc3cc(OCC)ccc3[nH]c2=O)c2nnnn2C2CCCCC2)CC1 (stereo unspecified) | inconclusive: 1.59% |  |
| Nc1c(C(=O)NCc2ccc3c(c2)OCO3)c2nc3ccccc3nc2n1CCCN1CCOCC1 | inconclusive: 0.962% |  |
| CC(=O)N1CCc2cc(S(=O)(=O)NCCC(=O)Nc3cc(C)cc(C)c3)ccc21 | inconclusive: -4.75% |  |
| CCN(CC)CCCNC(=O)c1cc(-c2ccc(O)cc2)on1 | inactive: -8.15% |  |
| COc1cccc2cc(-c3ccccc3)c(=O)oc12 | inconclusive: 29.1% |  |
| O=C(NCCc1ccc(F)cc1)c1n[nH]c2ccccc12 |  | inconclusive: 17.8 µM [falling, partial curve] |
| COC(=O)c1nc2nc(-c3cccs3)cc(C(F)(F)F)n2n1 | inactive: 0.17% |  |
| COc1ccc(NC(=O)C2C3C=CC(O3)C2C(=O)O)cc1 (stereo unspecified) | inconclusive: 7.8% |  |
| CSc1ncc(OCc2ccccc2)c(=O)[nH]1 |  | inconclusive: 22.4 µM [falling, single point] |
| CCC1(C)CC2(CCCN(CCC(O)(c3ccccc3)c3ccccc3)C2)CCO1 (stereo unspecified) | inactive: 0.683% |  |
| COC(=O)c1c(NC(=O)CSc2nnc(CNc3ccc(Cl)cc3)o2)sc(C)c1C | inconclusive: -28.9% |  |
| CCCCCC(=O)Nc1ccc2oc(-c3cncc(Br)c3)nc2c1 | inconclusive: -0.586% |  |
| O=C(NCCN1CCN(C(=O)c2c(F)cccc2F)CC1)C(=O)Nc1ccc(Cl)cc1 |  | inconclusive: 17.8 µM [falling, partial curve] |
| CCN(CC)C(=S)NC(=O)c1cc(OC)c(OC)c(OC)c1 | inactive: -12.3% |  |
| Cc1cc2cc(CN3C(=O)c4ccccc4C3=O)ccc2[nH]1 |  | inconclusive: 20.6 µM [falling, partial curve, poor fit] |
| C/C(=N\NC(=O)c1cccc(N/N=C(\C)c2cc(O)ccc2O)c1)c1cc(O)ccc1O |  | inconclusive: 11.2 µM [falling, partial curve] |
| OCCCc1nc2ccccc2n1CCc1ccccc1 |  | inconclusive: 23.1 µM [falling, partial curve] |
| CCCCCC(N)=O | inconclusive: 6.36% |  |
| Cc1ccc(NS(=O)(=O)c2cc(-c3n[nH]c(=O)c4ccccc34)ccc2C)cc1 |  | inconclusive: 18.4 µM [falling, partial curve] |
| COc1cc(C(=O)NC(C)c2cccc3ccccc23)cc(OC)c1OC (stereo unspecified) | inconclusive: -6.78% |  |
